# Data from patent publication US4340602A, “Compositions inhibiting estrogen sulfotransferase activity” (Wayne State University, priority 1978, dated 1982).
# Target: T1, Bovine Adrenal Estrogen Sulfotransferase (Bos taurus, UniProt P19217)
# T1 construct: The enzyme was isolated from the bovine adrenals; from tissue; host or cells: bovine adrenals; purified by ammonium sulfate fractionation and chromatography on DEAE-cellulose or DEAE-Sephadex A-50
# T1 sequence (P19217 1-295): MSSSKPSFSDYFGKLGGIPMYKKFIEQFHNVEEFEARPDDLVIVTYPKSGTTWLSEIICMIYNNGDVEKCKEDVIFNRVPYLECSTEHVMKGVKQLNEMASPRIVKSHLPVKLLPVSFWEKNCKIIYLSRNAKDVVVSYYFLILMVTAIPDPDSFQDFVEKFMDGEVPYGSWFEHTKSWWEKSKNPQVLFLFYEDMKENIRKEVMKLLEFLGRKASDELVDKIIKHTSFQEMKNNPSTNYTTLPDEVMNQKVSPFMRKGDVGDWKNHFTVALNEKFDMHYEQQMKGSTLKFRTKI
# Assay: Inhibition of bovine adrenal estrogen sulfotransferase (estrone sulfurylation)
# Format: biochemical
# Settings: pH 8.1, read-out: Fractional Inhibition (Table II)
# Method: Materials are evaluated for activity as estrogen sulfotransferase inhibitors by the method of Rozhin et al, Journal of Biological Chemistry, 252:7214-7220 (October 25, 1977), herein incorporated by reference.
# Isolation of Estrogen Sulfotransferase (EC 2.8.2.4). The enzyme was isolated from the bovine adrenals and purified by ammonium sulfate fractionation and column chromatography on DEAE-cellulose or DEAE-SephadexA-50 [Rozhin et al (1974)].
# Standard Enzyme Assay. […] After drying the sheet, samples were visualized by spraying with methylene blue (25 mg in 100 ml of 0.05 N H2 SO4), punched out with a cork borer, and counted in 10 ml of dioxane counting liquid. A blank employing a boiled enzyme sample was incubated and the recorded counts were substracted from each determination. […] An enzyme unit was defined as that quantity of enzyme which synthesized 1 nmol of estrone sulfate in 1 min under chosen conditions. […]
# Fractional Inhibition. From kinetic experiments, Ki was calculated as described above under "Data Processing" after making replots of slopes (and/or intercepts) versus inhibitor concentration. […] The dashed line represents the relationship between FI and the Ki of pure noncompetitive inhibition derived mathematically in an analogous manner and expressed as [formula] […]
structure (smiles),measurement,value
CC/C(=C(/CC)c1ccc(O)cc1)c1ccc(O)cc1 [Diethylstilbestrol],inhibition at 22.2 µM,34%
